The supplement of paper PMC12823440, “Inhibitors supercharge kinase turnover through native proteolytic circuits” (Nature, 2025)
Counter-ions that a name gives are not always drawn. This is one part of the list. Hit calls seldom repeat between salt and free forms of one compound.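 In K562 cells expressing nanoluciferase-fused kinases, luminescence was recorded at 4 h intervals between 2 and 18 h, normalized as percent of control with DMSO at 100% and a positive control at 0%. A significant (2 sigma) signal drop marks a time point as decreased. The authors' rule for a hit is not shown and takes in more than the number of time points.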

Amino acid sequences for entries named in this document (tags omitted).
UniProt O96017, whole entry: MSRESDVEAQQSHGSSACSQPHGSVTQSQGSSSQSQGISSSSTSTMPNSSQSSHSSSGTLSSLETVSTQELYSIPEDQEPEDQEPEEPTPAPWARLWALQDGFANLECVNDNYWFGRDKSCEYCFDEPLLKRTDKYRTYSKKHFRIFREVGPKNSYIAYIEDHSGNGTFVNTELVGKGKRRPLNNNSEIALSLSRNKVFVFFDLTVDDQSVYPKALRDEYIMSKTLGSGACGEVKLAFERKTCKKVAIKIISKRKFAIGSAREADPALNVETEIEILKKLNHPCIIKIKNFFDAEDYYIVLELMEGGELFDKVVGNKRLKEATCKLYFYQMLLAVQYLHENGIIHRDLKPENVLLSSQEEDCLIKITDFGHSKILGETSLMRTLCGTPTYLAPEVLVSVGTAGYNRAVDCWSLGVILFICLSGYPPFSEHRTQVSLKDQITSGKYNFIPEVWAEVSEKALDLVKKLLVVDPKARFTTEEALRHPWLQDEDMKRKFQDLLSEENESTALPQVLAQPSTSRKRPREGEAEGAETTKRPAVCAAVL

Biological target: CHEK2 (UniProt O96017)
Assay: kinase-Nluc reporter destabilization hit call (1 = scored as downregulated) (binary); higher = compound decreases kinase abundance
Details: K562; 2-18 h

kinase-Nluc reporter destabilization hit call, inactive:
CC(C)(C)n1nc(Cc2cccc3ccccc23)c2c(N)ncnc21 (10 µM) 0
CC1(C)CC=C(c2nc(C3CC(C)(C)OC(C)(C)C3)ccc2NC(=O)c2nc(C#N)c[nH]2)CC1 [Edicotinib] (2.5 µM) 0
CC(C)CC(=O)Nc1n[nH]c2c1CN(C(=O)C1CCN(C)CC1)C2(C)C (2.5 µM) 0
Nc1ncnc2c1c(-c1ccc(Oc3ccccc3)cc1)cn2C1CCCC1 (2.5 µM) 0
CC(=O)NCC(=O)N1[C@@H]2CC[C@H]1c1ccc(Nc3ncc(C(F)(F)F)c(NC4CCC4)n3)cc12 (2.5 µM) 0
Cc1nc(-c2cnc(NC(C)C)n(C)c2=O)ccc1Oc1ccnc(-c2cnn(C)c2)c1 (2.5 µM) 0
CN(C)C(=O)/C(C#N)=C/c1ccc(-c2nc3cnc4[nH]ccc4c3n2C2CCCCC2)o1 (10 µM) 0
CCCS(=O)(=O)Nc1ccc(F)c(C(=O)c2c[nH]c3ncc(Cl)cc23)c1F (10 µM) 0
COc1ccc2c(NC(=O)Nc3cccc(C(F)(F)F)n3)ccnc2c1 (10 µM) 0
CNC(=O)c1cccc(-c2ccc3c(N4CCOC[C@@H]4C)nc(N4CCOC[C@@H]4C)nc3n2)c1 [Vistusertib] (2.5 µM) 0
COCCNCCc1cccc(Nc2ncc3c(n2)-c2ccccc2[C@H](c2ccccc2F)C3)c1 [Derazantinib] (2.5 µM) 0
CNC(=O)c1ccccc1Nc1nc(Nc2ccc(N3CCOCC3)cc2OC)ncc1Cl (2.5 µM) 0
Cc1c(C(=O)N2CCOc3ccc(-c4ccc(N)nc4)cc3C2)ccc(S(C)(=O)=O)c1F (10 µM) 0
Cc1ccc(NC(=O)Nc2nnc(Sc3ncnc4cc(OCCCN5CCOCC5)ccc34)s2)cc1 (10 µM) 0
N#CC(=Cc1ccc(O)c(O)c1)C(=O)NCc1ccccc1 (mixture of isomers) (10 µM) 0
COc1ccc(COc2ccc(Cc3cnc(N)nc3N)cc2OC)cc1 (10 µM) 0
CC(=O)N1CCN(c2ccc(OCC3COC(Cn4ccnc4)(c4ccc(Cl)cc4Cl)O3)cc2)CC1 (stereo not drawn) [Ketoconazole] (2.5 µM) 0
Cc1ccc(F)c(NC(=O)Nc2ccc(-c3cccc4[nH]nc(N)c34)cc2)c1 [Linifanib] (2.5 µM) 0
CNc1nc(-c2ccc3c(N)n[nH]c3c2)cc(N2C[C@@H](C(=O)NC3CCCCC3)CC[C@H]2C)n1 (10 µM) 0
Cc1nc(N)sc1-c1ccnc(Nc2ccc(N3CCOCC3)cc2)n1 (10 µM) 0
O=c1oc2ccccc2c(O)c1Cc1c(O)c2ccccc2oc1=O [Dicoumarol] (10 µM) 0
CCc1nc(-c2cccc(C)c2)c(-c2ccnc(NC(=O)c3ccccc3)c2)s1 (10 µM) 0
CC(C)(C)c1cc(NC(=O)Nc2ccc(-c3cn4c(n3)sc3cc(OCCN5CCOCC5)ccc34)cc2)no1 [Quizartinib] (10 µM) 0
O=S(=O)(NCCNC/C=C/c1ccc(Br)cc1)c1cccc2cnccc12 [H-89 (dihydrochloride)] (10 µM) 0
COc1cc2ncn(-c3cc(OCc4ccccc4C(F)(F)F)c(C(N)=O)s3)c2cc1OC (10 µM) 0
CCn1cc(-c2ccnc3[nH]c(-c4cccc(CN(C)C)c4)cc23)c(-c2ccc(NC(=O)N(C)C)cc2)n1 (2.5 µM) 0
O=C1c2ccccc2-c2n[nH]c3cccc1c23 (10 µM) 0
C[C@]1(O)C[C@@H](c2nc(-c3ccc4ccc(-c5ccccc5)nc4c3)c3c(N)nccn32)C1 [Linsitinib] (2.5 µM) 0
Cc1cc(C)c(/C=C2\C(=O)Nc3ccccc32)[nH]1 [Semaxinib] (10 µM) 0
Cc1cccc(Cn2nc(C3CC3)c3c(NC(=O)c4cnc5cc(OCCN6CCN(C)CC6)ccn45)cccc32)n1 (10 µM) 0
COc1cc(OC)cc(-c2cc3cnc(N)nc3nc2NC(=O)NC(C)(C)C)c1 (10 µM) 0
CN(c1ncccc1CNc1nc(Nc2ccc3c(c2)CC(=O)N3)ncc1C(F)(F)F)S(C)(=O)=O (2.5 µM) 0
COc1ccc2c(C(=O)Nc3ccc(NC(=O)c4nn(C5CCN(C(=O)CC(C)(C)C#N)CC5)c5ccc(F)cc45)cc3Cl)cnn2c1 [Src Inhibitor 3] (2.5 µM) 0
Oc1ccc(-c2nc(-c3ccc(F)cc3)c(-c3ccncc3)[nH]2)cc1 (2.5 µM) 0
COc1cc(Nc2ncc3c(n2)-c2ccc(Cl)cc2C(c2c(F)cccc2OC)=NC3)ccc1C(=O)O [Alisertib] (2.5 µM) 0
O=c1c(-c2ccc(O)cc2)coc2cc(O)cc(O)c12 [Genistein] (10 µM) 0
CN1CCN(c2ccc(C(=O)Nc3n[nH]c4ccc(Cc5cc(F)cc(F)c5)cc34)c(NC3CCOCC3)c2)CC1 [Entrectinib] (2.5 µM) 0
CCN1CCN(Cc2ccc(C(=O)Nc3ccc(C)c(Oc4ccc5c(c4)CC(=O)N5)c3)cc2C(F)(F)F)CC1 (2.5 µM) 0

Ten structures out of the list, ordered by formula weight, rising:
kinase-Nluc reporter destabilization hit call, inactive:
O=c1c(-c2ccc(O)cc2)coc2cc(O)cc(O)c12 [Genistein] (10 µM) 0
Oc1ccc(-c2nc(-c3ccc(F)cc3)c(-c3ccncc3)[nH]2)cc1 (2.5 µM) 0
O=c1oc2ccccc2c(O)c1Cc1c(O)c2ccccc2oc1=O [Dicoumarol] (10 µM) 0
CCc1nc(-c2cccc(C)c2)c(-c2ccnc(NC(=O)c3ccccc3)c2)s1 (10 µM) 0
O=S(=O)(NCCNC/C=C/c1ccc(Br)cc1)c1cccc2cnccc12 [H-89 (dihydrochloride)] (10 µM) 0
COCCNCCc1cccc(Nc2ncc3c(n2)-c2ccccc2[C@H](c2ccccc2F)C3)c1 [Derazantinib] (2.5 µM) 0
CCn1cc(-c2ccnc3[nH]c(-c4cccc(CN(C)C)c4)cc23)c(-c2ccc(NC(=O)N(C)C)cc2)n1 (2.5 µM) 0
COc1cc(Nc2ncc3c(n2)-c2ccc(Cl)cc2C(c2c(F)cccc2OC)=NC3)ccc1C(=O)O [Alisertib] (2.5 µM) 0
CC(=O)N1CCN(c2ccc(OCC3COC(Cn4ccnc4)(c4ccc(Cl)cc4Cl)O3)cc2)CC1 (stereo not drawn) [Ketoconazole] (2.5 µM) 0
Cc1cccc(Cn2nc(C3CC3)c3c(NC(=O)c4cnc5cc(OCCN6CCN(C)CC6)ccn45)cccc32)n1 (10 µM) 0
